Measured values from PMC11055835, “Small animal PET imaging with the ^68Ga-labeled pH (low) insertion peptide-like peptide YJL-4 in a triple-negative breast cancer mouse model” (EJNMMI Radiopharmacy and Chemistry, 2024).
Peptide text beside a SMILES is read from it. * marks the point of attachment. X1 = O=C(O)CN1CCN(CC(=O)O)CC(Cc2ccc(NC(=S)*)cc2)N(CC(=O)O)CC1; NOTA = O=C(O)CN1CCN(CC(=O)O)CCN(CC(=O)*)CC1; Ahx = NCCCCCC(=O)O

How the values were obtained:
[1] = system: MDA-MB-231 tumor-bearing nude mice; assay: Small animal PET imaging; format: in vivo, BALB/c nude mice; conditions: 2 and 4 h after injection, approx. 7.4 MBq/200 μL via tail vein, static 10-min PET, n = 3
Procedure: Human breast cancer cells (MDA-MB-231 cells from the Cell Bank of the Chinese Academy of Sciences) were cultured in high-glucose DMEM supplemented with 10% fetal bovine serum and 1% double antibiotic mixture (penicillin‒streptomycin mixture) at 37 °C in 5% CO2. Twenty-four four- to five-week-old female specific pathogen-free (SPF) BALB/c nude mice (Hangzhou Ziyuan Experimental Animal Technology Co., Ltd., China, license number: SCXK(Zhe) 2019–0004) were used to establish the MDA-MB-231 tumor model by subcutaneously inoculating 0.1 mL of cell suspension (50 µL of PBS + 50 µL of Matrigel) containing 1 × 10^6 MDA-MB-231 cells at the base of the right forelimb of each mouse. The animal studies were approved by the ethics committee of Qingdao University, and the management of the animals adhered to the animal ethics standards.
Six tumor-bearing nude mice were selected for imaging when the tumor diameter reached 0.8–1.0 cm. Mice were randomly divided into two groups: a YJL-4 group and a control group, with 3 mice per group; each group had two time points. Each tumor-bearing nude mouse was injected with approximately 7.4 MBq/200 μL of ^68Ga-YJL-4 or ^68Ga-kVar7 through the tail vein, and the mice were anesthetized with 2% isoflurane at 2 and 4 h after injection and imaged using static 10-min PET and moderate-resolution whole-body CT. […]

[2] = Circular dichroism (CD) spectroscopy with POPC; format: physicochemical; conditions: peptide 0.1 mg/mL, POPC 2 mmol/L, phosphate buffer 10 mmol/L, pH 8.0 and 4.0, 25 °C, 190-260 nm

Molecule | Visualization of livers by PET [1] | Secondary structure by CD [2]
CC(C)C[C@H](NC(=O)[C@H](CC(=O)O)NC(=O)[C@H](CC(C)C)NC(=O)[C@H](CC(C)C)NC(=O)[C@H](CC(C)C)NC(=O)[C@@H](NC(=O)[C@H](CC(=O)O)NC(=O)[C@@H](NC(=O)[C@@H]1CCCN1C(=O)[C@H](Cc1ccccc1)NC(=O)[C@H](CC(C)C)NC(=O)[C@H](CC(C)C)NC(=O)[C@H](CC(=O)O)NC(=O)[C@H](C)NC(=O)[C@H](Cc1ccc(O)cc1)NC(=O)[C@H](CCCNC(=N)N)NC(=O)[C@H](C)NC(=O)[C@H](Cc1c[nH]c2ccccc12)NC(=O)[C@@H]1CCCN1C(=O)[C@H](CC(N)=O)NC(=O)[C@H](CCC(N)=O)NC(=O)[C@H](CC(=O)O)NC(=O)[C@H](CC(=O)O)NC(=O)[C@H](CS)NC(=O)[C@H](C)NC(=O)CCCCCNC(=S)Nc1ccc(CC2CN(CC(=O)O)CCN(CC(=O)O)CCN2CC(=O)O)cc1)[C@@H](C)O)[C@@H](C)O)C(N)=O (stereo partly shown) [^68Ga-YJL-4, metal not drawn] ({X1-Ahx}-ACDDQNPWARYADLLFPTDTLLLDL-NH2) | clearly visualized | 
CC(C)C[C@H](NC(=O)[C@H](CCCCN)NC(=O)[C@H](CC(C)C)NC(=O)[C@H](CC(C)C)NC(=O)[C@H](CC(C)C)NC(=O)[C@@H](NC(=O)[C@H](CCCCN)NC(=O)[C@@H](NC(=O)[C@@H]1CCCN1C(=O)[C@H](Cc1ccccc1)NC(=O)[C@H](CC(C)C)NC(=O)[C@H](Cc1c[nH]c2ccccc12)NC(=O)[C@H](CCCCN)NC(=O)[C@H](CC(C)C)NC(=O)[C@H](Cc1ccc(O)cc1)NC(=O)[C@H](CCCNC(=N)N)NC(=O)[C@H](C)NC(=O)[C@H](Cc1c[nH]c2ccccc12)NC(=O)[C@@H]1CCCN1C(=O)[C@H](CC(N)=O)NC(=O)[C@H](CCC(N)=O)NC(=O)[C@H](CCC(=O)O)NC(=O)[C@H](CCC(=O)O)NC(=O)[C@H](CS)NC(=O)[C@H](C)NC(=O)CN1CCN(CC(=O)O)CCN(CC(=O)O)CC1)[C@@H](C)O)[C@@H](C)O)C(N)=O [^68Ga-kVar7, metal not drawn, reference compound] ({NOTA}-ACEEQNPWARYLKWLFPTKTLLLKL-NH2; N-terminus assumed) | clearly visualized | 
ACDDQNPWARYADLLFPTDTLLLDL-NH2 [YJL-4] |  | pH-dependent transition from the unstructured conformation to the α-helical structure
{NOTA}-ACEEQNPWARYLKWLFPTKTLLLKL-NH2 [kVar7, pH-insensitive control peptide (Sosunov et al. 2013), negative control, reference compound] |  | β-sheet conformation
